For at least one compound, name, drawing or mass did not settle the structure.
Experiments:
[1] = system: Cutibacterium acnes ATCC 11827; assay: In vitro UV model, survival of C. acnes after UV irradiation (96-well liquid model, plate counting); assay type: cell-based; settings: C. acnes ATCC 11827, phylotype IA
Method: (§1) Accordingly, the inventors developed a targeted in vitro liquid model in 96-well microplate format to screen for UV protective actives (“UV filters”) on bacterial survival. The effects of selected UV irradiation conditions tested on microbial population of C. acnes and the commensal reference strain of Staphylococcus epidermidis in the presence of various UV filters and combinations thereof were evaluated with the evolution of the residual microbial population after 4 h. The inhibition of bacterial growth, as consequence of UV irradiation, was compared to that of the same strain without UV irradiation and was expressed in percentage of survival (%). […] The use level of the single UV filter and combinations in the test formulations was calculated to obtain a predicted in vitro SPF value of 5.75+/−0.15 and 23.45+/−0.65, respectively (Table 2). […] The relative percentage of protection (%) was calculated from the difference between the survival percentages of samples and vehicle control (with UV irradiation) and divided to the survival percentage of the vehicle control. Consequently, the survival of each microbial population and the relative protection by the UV filter(s) were calculated and are summarized in the Table 2.

[2] = system: Staphylococcus epidermidis ATCC 12228; assay: In vitro UV model, survival of S. epidermidis after UV irradiation (96-well liquid model, MPN method); assay type: cell-based
Method: as §1

Question: Which results are given for `CCCCC(CC)COC(=O)c1ccccc1O` (stereo not drawn) [Inv. 2, Ethylhexyl Salicylate]?
Answer: effect on the population of C. acnes upon UV irradiation (in words) [1]: particularly good reduction in the survival rate of C. acnes; effect on the population of C. acnes upon UV irradiation (in words) ([1]; listed as EHS): reduced the population of C. acnes; effect on the commensal bacterium S. epidermidis upon UV irradiation (in words) [2]: maintain or even propagating the commensal bacterium S. epidermidis

From US20250161329A1, “USE OF UV FILTERS FOR THE TREATMENT OF ACNE” (DSM IP ASSETS B.V., priority 2022, published 2025)
